The numbers were not newly measured in patent US10945961B2, “Method using enteric-coated etidronate for treating calcification, hypercalcaemia, and calcinosis of the brain and other organs” (ZY YTHERAPEUTICS LLC, priority 2017, dated 2021), which cites them from elsewhere.

The test system of the data set is patients with brain calcifications (Fahr's Disease). The following applies: patients with brain calcification.

As to `NCCCC(O)(P(=O)(O)O)P(=O)(O)O` [alendronate], the “symptomatic effect (seizures, headaches, Parkinsonian symptoms)” value is “symptomatic relief in a large patient population but not as significantly as with disodium etidronate”.
